Assay: Xenon lamp aging of two-component acrylic varnish on epoxy-reinforced carbon fiber plate (gloss, adhesive force)
Conditions: for 20° gloss, initial: 1 wt % absorber in component A with 0.6 wt % Riasorb UV-123, before aging; for Adhesive force after 6000 h of Xenon Exposure / 20° gloss after aging 2000 h / 20° gloss after aging 4000 h / 20° gloss after aging 6000 h: 1 wt % absorber in component A; for Adhesive force after 6000 h of Xenon Exposure: ISO 2409-2013; for 20° gloss after aging 2000 h / 20° gloss after aging 4000 h / 20° gloss after aging 6000 h: xenon lamp, SAE J2527

| SMILES | 20° gloss, initial | Adhesive force after 6000 h of Xenon Exposure | 20° gloss after aging 2000 h | 20° gloss after aging 4000 h | 20° gloss after aging 6000 h |
| --- | --- | --- | --- | --- | --- |
| CCCCCCCCCCCCSc1ccc2nn(-c3cc(C)cc(C(C)(C)C)c3O)nc2c1 [RSUV-1] | 90.4 | Rate 4, a large area dropped | 78.5 | 65.3 | 50.4 |
| CCCCCCCCCCCCS(=O)(=O)c1ccc2nn(-c3cc(C)cc(C(C)(C)C)c3O)nc2c1 [RSUV-2] | 91.0 | Rate 2, a small amount | 85.0 | 68.2 | 55.9 |
